# Test results published in paper PMC7819943, “Rice protein-binding microarrays: a tool to detect cis-acting elements near promoter regions in rice”.
# The chains behind the UniProt entries cited, without tags or fusion partners.
# UniProt Q0JBA9, entry or part of it: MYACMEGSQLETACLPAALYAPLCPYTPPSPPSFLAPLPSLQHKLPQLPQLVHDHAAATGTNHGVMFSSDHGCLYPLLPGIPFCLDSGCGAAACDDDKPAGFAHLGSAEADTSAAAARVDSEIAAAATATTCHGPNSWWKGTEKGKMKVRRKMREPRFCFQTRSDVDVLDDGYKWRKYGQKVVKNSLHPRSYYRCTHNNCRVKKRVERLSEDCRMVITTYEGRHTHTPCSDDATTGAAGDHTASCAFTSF
# Some of the results follow.
# Molecular target: OsWRKY34 (Oryza sativa, UniProt Q0JBA9 1-250)
# Test: protein-binding microarray (RPBM); PBS, 2% BSA, 51.3 ng/ul salmon testes DNA, 50 uM zinc acetate, 200 nM TF, 25 C, 1 h; high values mean tight binding
# Settings: protein: recombinant; tags: N-terminal polyhistidine and DsRed monomer fusion (pET32a); label: CyDye5-dUTP incorporated in the synthesized complementary strand; 3' TTTTT single-stranded linker to array surface; dsDNA, one strand shown
# How it was run: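 Binding signal here means per-feature fluorescence intensity in arbitrary units. The values were read on an Axon 4000B scanner after a custom Agilent array, double-stranded by primer extension with Cy5-dUTP, was incubated with 200 nM protein at 25 °C for 1 h in PBS with 2% BSA, salmon testes DNA and 50 µM zinc acetate, then washed. The proteins were transcription factors with an N-terminal polyhistidine tag and DsRed, expressed in E. coli BL21-CodonPlus and purified on Ni–NTA.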
row,Sequence,binding signal
1,GTAACTCTGCCACTTGGGCCTATTTCTACTTGTTAAAGCACGGAGTCACCTAGTGCAG,9860 fluorescence intensity (a.u.)
2,AGGGTTCGTCTTGGCTATACAGTCGCTTGGATTTCTTATGCGGAGTCACCTAGTGCAG,12000 fluorescence intensity (a.u.)
3,TTCCACCCTCGCCGTCGAGCCGCACCACCGCCGCTTCGCCCGGAGTCACCTAGTGCAG,9880 fluorescence intensity (a.u.)
4,AACCCTTGTTACGTGCAATCACATTGGCCCCAGTTCATCACGGAGTCACCTAGTGCAG,8120 fluorescence intensity (a.u.)
5,CCCTTCTCCAACCCCGCTTCAAATTTGGATCGCGTCGATTCGGAGTCACCTAGTGCAG,8470 fluorescence intensity (a.u.)
6,GCACGAGCCGACGATCCCAGTACACCCAACATGGCCACATCGGAGTCACCTAGTGCAG,9020 fluorescence intensity (a.u.)
7,GATGGAACCGCCCTATTGGATGACAACGCCAGTCAGTCTGCGGAGTCACCTAGTGCAG,8160 fluorescence intensity (a.u.)
8,GCGTACATAGTTTTCAGCCTCTGAACCTTTTTCAGTTTCACGGAGTCACCTAGTGCAG,8150 fluorescence intensity (a.u.)
9,TTTTCTCAATTGGATAGTCCATATTTTGTTGCCTATGAACCGGAGTCACCTAGTGCAG,8250 fluorescence intensity (a.u.)
10,CCCTATATACGCAAGCTTCCTTCCACCTCGCCCTTTTACTCGGAGTCACCTAGTGCAG,8660 fluorescence intensity (a.u.)
11,CTCCGCCGCTCGCTCCGACTCCGAGCCTTAAACCCTTCTGCGGAGTCACCTAGTGCAG,11400 fluorescence intensity (a.u.)
12,GGTCGCGTCGCCCCGCTCCAACTCTCCAAGCGGAAACACACGGAGTCACCTAGTGCAG,8890 fluorescence intensity (a.u.)
13,AACGTTGATTTGTTGATAGAGTATGGTTATTGATGCCCCTCGGAGTCACCTAGTGCAG,8240 fluorescence intensity (a.u.)
14,AATTGCTCTTGCGGCGCCGCGGATTCTTCGTCTCCACCACCGGAGTCACCTAGTGCAG,8080 fluorescence intensity (a.u.)
15,GACATTCCCCACGACACCTCTCTCTTCCTCTCGCTCTTGGCGGAGTCACCTAGTGCAG,8680 fluorescence intensity (a.u.)
16,GCGAGGGAATTTCGCGTTGTTTTTTTTGTGTTTCCTTCGCCGGAGTCACCTAGTGCAG,13300 fluorescence intensity (a.u.)
17,TGTGCGGTTTCGTTTCTTGGTTTGGATTTTACGGGAGGTGCGGAGTCACCTAGTGCAG,11500 fluorescence intensity (a.u.)
18,ATCTTCCACACGATTTTCGCCTATAAAATGCACGGTAAACCGGAGTCACCTAGTGCAG,8450 fluorescence intensity (a.u.)
19,AACTCTACAATCAACAAATCCCCATTTGCAACGGTCAAAACGGAGTCACCTAGTGCAG,8280 fluorescence intensity (a.u.)
20,ACATACAAACTTCCAACTTTTCCGTCACATCGTTTTAATTCGGAGTCACCTAGTGCAG,8770 fluorescence intensity (a.u.)
21,GTAGTGGTTGGATCTGCGATTTTGGAATTTTTTTGAGGGGCGGAGTCACCTAGTGCAG,10200 fluorescence intensity (a.u.)

row,Sequence,binding signal
1,ACATGGTGACATACTTTTTCTAATGCTGTTTCATCTTATTCGGAGTCACCTAGTGCAG,15000 fluorescence intensity (a.u.)
2,GAGGTCACACGAGAGAAGGGCCCTCAGTGCTCTCATTGACCGGAGTCACCTAGTGCAG,9910 fluorescence intensity (a.u.)
3,AATATATTTAGTTTTGGACTCGTTTGTTCCTCTCACCATCCGGAGTCACCTAGTGCAG,8100 fluorescence intensity (a.u.)
4,CAGCCGCTCGCCTCGTTGCTCCCGTGCTGTGCTCTGCTCACGGAGTCACCTAGTGCAG,9030 fluorescence intensity (a.u.)
5,CATCCCCTCTGTTACGACCGCTCATTCTCTCGTCTCTCAGCGGAGTCACCTAGTGCAG,9420 fluorescence intensity (a.u.)
6,GAATTAACGGCCGATCGATCTAACCTCACCAAGTTAACCTCGGAGTCACCTAGTGCAG,8760 fluorescence intensity (a.u.)
7,TCTTAAAATTTTGGCCTTGTTTACTTCCTTGCCATTCTCACGGAGTCACCTAGTGCAG,12000 fluorescence intensity (a.u.)
8,GCGTGCGTCAGATCGCCTGTCGCCACCTAACCCGCGATCTCGGAGTCACCTAGTGCAG,8940 fluorescence intensity (a.u.)
9,TCCTCTGTTCTCCTTCTCTGTTCCATTGCTAGCAAAATAACGGAGTCACCTAGTGCAG,8480 fluorescence intensity (a.u.)
10,GATGTGGATTTGGGATGTTAATTTGATTTGGGATTTGGGGCGGAGTCACCTAGTGCAG,10600 fluorescence intensity (a.u.)
11,TATTTCGTTTATCTATCAATTTCTTGACTGAAGATACTGTCGGAGTCACCTAGTGCAG,8610 fluorescence intensity (a.u.)
12,TATTTTCGCAATCCTTTGCAATTTCTTGGATTCTTCAGTACGGAGTCACCTAGTGCAG,8810 fluorescence intensity (a.u.)
13,CACTCACTTCTACCTACTTTCTTAATAACAATGTCCAACTCGGAGTCACCTAGTGCAG,10100 fluorescence intensity (a.u.)
14,CTATCATTCATACTTCGGTCTACCATGTGTTTATTTGAAGCGGAGTCACCTAGTGCAG,11100 fluorescence intensity (a.u.)
15,ATGGCAACAGCAGCAGCCGTACGTTGCCGTCGCCGTCACGCGGAGTCACCTAGTGCAG,9970 fluorescence intensity (a.u.)
16,GACTGTACCTTCAAAATTTTGACGGATGTCACCCGAGTACCGGAGTCACCTAGTGCAG,8520 fluorescence intensity (a.u.)
17,CCTCCTCACAACCGCATGTCGCCGATTCCCTGCCGCATCTCGGAGTCACCTAGTGCAG,9980 fluorescence intensity (a.u.)
18,AGCATTTCCTGACCCTATTATCATTCGTATTTAGTCTGCCCGGAGTCACCTAGTGCAG,11400 fluorescence intensity (a.u.)
19,CTGCTAGCCCGGTTAATCTACCAAAACCCGTCTTGATTTACGGAGTCACCTAGTGCAG,9070 fluorescence intensity (a.u.)
20,GGCCGGCTGGTTACCATTCTCTCTCTTCTACCCAATTCAACGGAGTCACCTAGTGCAG,9120 fluorescence intensity (a.u.)
21,TGTTATGTATACACAGATTACTCAAAATTGTTGTACTGTCCGGAGTCACCTAGTGCAG,8040 fluorescence intensity (a.u.)

row,Sequence,binding signal
1,CCCACCCACCACCCACGAATTCTTGCACTACACATCAGATCGGAGTCACCTAGTGCAG,9560 fluorescence intensity (a.u.)
2,TCCCTCCCGTCTCGTCTCCGCTCATTGCGCCATCTCGCGCCGGAGTCACCTAGTGCAG,8660 fluorescence intensity (a.u.)
3,GATCAATATTGTGTGACTTTTTTAAACCTGCCTGCTTATTCGGAGTCACCTAGTGCAG,10400 fluorescence intensity (a.u.)
4,ACCTGCACACCCACGACACGTCGCGCCGCTCATGCCCTTTCGGAGTCACCTAGTGCAG,9350 fluorescence intensity (a.u.)
5,GGTGGTGTTTGGATACAGGGACTGATCCTGTCATATCAGACGGAGTCACCTAGTGCAG,9620 fluorescence intensity (a.u.)
6,GTCTCACAGGTACCAACTTTATCACTTTACTAACTTTTTCCGGAGTCACCTAGTGCAG,11400 fluorescence intensity (a.u.)
7,AAGTGGTGTTCTTGTTGTGCATTTGAGCCATTTAACCAAACGGAGTCACCTAGTGCAG,9550 fluorescence intensity (a.u.)
8,AACCTGTCATTCTCTCCGTTGATATCCAATTTGGCTGATCCGGAGTCACCTAGTGCAG,8750 fluorescence intensity (a.u.)
9,GCCAGCTACCATCTTCTTTCTTCCCTTTTCTTCCCGAACGCGGAGTCACCTAGTGCAG,9080 fluorescence intensity (a.u.)
10,GGCAAATTCTAGTCATCTATATAAGCAACATAAACATACACGGAGTCACCTAGTGCAG,8900 fluorescence intensity (a.u.)
11,CATGAGTTTCCGTGTACAACTTTGATCGTCCGTTTTATTTCGGAGTCACCTAGTGCAG,9570 fluorescence intensity (a.u.)
12,CATTACCATACATGGCTGCTAGACCCTACACACGTACTGTCGGAGTCACCTAGTGCAG,8950 fluorescence intensity (a.u.)
13,ATTGGAAGTGGTCTTCTGGATTGTTCTAGGCCTGCTTATGCGGAGTCACCTAGTGCAG,8180 fluorescence intensity (a.u.)
14,CTCACGCTCTCTCGTCCCCTCCATGCACGGCCTAGCTACCCGGAGTCACCTAGTGCAG,11200 fluorescence intensity (a.u.)
15,GAGAAAATGTTGCCACCTTTTGTTGGTTCGCCGTGGTGGCCGGAGTCACCTAGTGCAG,8440 fluorescence intensity (a.u.)
16,GGTTTGTTAATATAGTATCAAGTTCATTTGGCTTATTAAACGGAGTCACCTAGTGCAG,8270 fluorescence intensity (a.u.)
17,ATTTCTTCGTCTCATCTTCTGATAATTTACTCCAGTTTACCGGAGTCACCTAGTGCAG,9630 fluorescence intensity (a.u.)
18,TCCTCCTCTGCCTCTGCCTCCAGGCCGCCTCCACACCACTCGGAGTCACCTAGTGCAG,8780 fluorescence intensity (a.u.)
19,GTGCGTATGTGTTGTGAGTATCTGTGTTGTACTGTGTAATCGGAGTCACCTAGTGCAG,10300 fluorescence intensity (a.u.)
20,CCATTGCCATCTCTAGGAACAACACCAATGCCGAGATCAGCGGAGTCACCTAGTGCAG,8260 fluorescence intensity (a.u.)
21,CTTTGATCATGTTCTCATACTTCTCAGCGTCCAATCATACCGGAGTCACCTAGTGCAG,8040 fluorescence intensity (a.u.)

row,Sequence,binding signal
1,GGGCAACTTCTCTCAGTTTGTTCTTGGGCCTGTTATTTAACGGAGTCACCTAGTGCAG,11000 fluorescence intensity (a.u.)
2,CCCGTTTCGTCGTGCCGTCGTCGTGTCCTCTCTTCAGCCACGGAGTCACCTAGTGCAG,8500 fluorescence intensity (a.u.)
3,GTTTGATCTATTATTTGCAAATCTTGTCAGTTGTAGGATTCGGAGTCACCTAGTGCAG,12200 fluorescence intensity (a.u.)
4,ATGTATGTATGTATGTGTGTGTGTGTATATATATATATATCGGAGTCACCTAGTGCAG,10600 fluorescence intensity (a.u.)
5,ATTCGTTCTGGTTTTCTTCGGGGTTTATTGATTCACGCGACGGAGTCACCTAGTGCAG,18200 fluorescence intensity (a.u.)
6,TGTTTTACCTTGAGTTATCTGATGTTGACTGGTGTGTACTCGGAGTCACCTAGTGCAG,10100 fluorescence intensity (a.u.)
7,TTTAGGTTATAATGCTACACATTTCTTTTGGGGTTCTATTCGGAGTCACCTAGTGCAG,15800 fluorescence intensity (a.u.)
8,CCATTCAAGTTTATTTTTTCTATGGTTGGTTCTTGTATGCCGGAGTCACCTAGTGCAG,8760 fluorescence intensity (a.u.)
9,CCGTCGCGGTCGCCACTCCCTGCCACCACGCCCTTCATCGCGGAGTCACCTAGTGCAG,9050 fluorescence intensity (a.u.)
10,GTCGTTTTTGTTTGACGATTTGTGTCAAGTAATCCTTTTGCGGAGTCACCTAGTGCAG,9680 fluorescence intensity (a.u.)
11,ATTAATTATTTTCGTATCATTTGATTTATGTATACATATACGGAGTCACCTAGTGCAG,8140 fluorescence intensity (a.u.)
12,GTGCTTTGGGCGAAGCCGAGGGGTGGCCGGGGAAGGAGATCGGAGTCACCTAGTGCAG,8750 fluorescence intensity (a.u.)
13,CCATTTCCCGTCGTCTCCACCTCACCACCTCTCTAAACAACGGAGTCACCTAGTGCAG,11600 fluorescence intensity (a.u.)
14,CACGCTCACGTTGCCGCACCTGTCCGGGCAGCCCGCCGGCCGGAGTCACCTAGTGCAG,10300 fluorescence intensity (a.u.)
15,CCCTGATATTTTCCCCTTCTCAGTCCTCACACGTTCTCTTCGGAGTCACCTAGTGCAG,8040 fluorescence intensity (a.u.)
16,CAATGTTATGGAATGGATTATCTCTTTTTTTTTTCAAACCCGGAGTCACCTAGTGCAG,8420 fluorescence intensity (a.u.)
17,AGGTCCCTAGTTCTGTTTTTTTCTGGTAGTCGGTCCGGTCCGGAGTCACCTAGTGCAG,9260 fluorescence intensity (a.u.)
18,GCTAAGGGGATTTTTGGGTTTGGCTGGGTATTACAGGAAACGGAGTCACCTAGTGCAG,11200 fluorescence intensity (a.u.)
19,CTCTCAGGTTGGGGCAATTGGTATTCCATAGTTTTCTTCACGGAGTCACCTAGTGCAG,10000 fluorescence intensity (a.u.)
20,CTCCACTCCTCGCGCCGTACTCTCCATGCCCTCGTCTTGACGGAGTCACCTAGTGCAG,8860 fluorescence intensity (a.u.)
21,CATCCATTCCCCTCCCCTCCCGTCATCCACTCATCCCGTGCGGAGTCACCTAGTGCAG,8030 fluorescence intensity (a.u.)
